{
  "sequences": {"note": "Chains of the proteins cited; added tags and fusions are not shown.", "UniProt Q92830, whole entry, looked up": "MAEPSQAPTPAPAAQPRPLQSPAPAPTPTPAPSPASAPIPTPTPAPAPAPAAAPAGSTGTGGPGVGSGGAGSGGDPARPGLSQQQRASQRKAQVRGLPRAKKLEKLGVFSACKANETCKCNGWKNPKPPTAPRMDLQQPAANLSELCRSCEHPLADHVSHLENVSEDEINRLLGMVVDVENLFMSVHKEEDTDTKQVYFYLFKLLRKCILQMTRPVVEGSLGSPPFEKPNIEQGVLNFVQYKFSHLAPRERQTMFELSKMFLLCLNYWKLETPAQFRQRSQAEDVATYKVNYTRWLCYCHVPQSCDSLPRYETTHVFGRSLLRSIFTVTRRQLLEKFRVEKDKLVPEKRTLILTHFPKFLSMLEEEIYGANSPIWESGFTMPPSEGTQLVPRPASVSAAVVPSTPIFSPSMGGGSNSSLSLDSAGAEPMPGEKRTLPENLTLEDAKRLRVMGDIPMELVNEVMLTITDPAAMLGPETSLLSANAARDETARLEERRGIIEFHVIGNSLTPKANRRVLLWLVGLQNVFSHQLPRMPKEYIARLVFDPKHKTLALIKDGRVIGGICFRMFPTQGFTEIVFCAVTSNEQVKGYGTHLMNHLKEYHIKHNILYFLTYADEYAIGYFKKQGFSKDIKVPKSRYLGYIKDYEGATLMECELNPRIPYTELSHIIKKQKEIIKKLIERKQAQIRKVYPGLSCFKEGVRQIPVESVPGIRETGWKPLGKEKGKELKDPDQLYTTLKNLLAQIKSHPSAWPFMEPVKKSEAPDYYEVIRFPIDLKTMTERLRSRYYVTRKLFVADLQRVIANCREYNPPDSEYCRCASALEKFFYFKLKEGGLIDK"},
  "source": "PubChem BioAssay AID504327",
  "about": "(National Center for Advancing Translational Sciences (NCATS), 2011)",
  "note": "Hit rate of the full screen: of about 390,000 compounds, about 820 (0.21%) were called active. The inconclusive results got no clear call from the source; some entries with a clear call stand among them for comparison. The call rests on the fitted dose curve; in most records, active means well fitted inhibition curve with a large enough effect; inconclusive means small, poorly fitted or top-dose-only effect, or another doubt; inactive means no such curve, though single readings can be large or run the other way. Potencies beside an inconclusive call are fits to weak or partial responses and may not hold up. Potency means the concentration at half of the fitted maximal effect.",
  "data": [
    {"biological_target": "Histone acetyltransferase KAT2A (Homo sapiens) (UniProt Q92830)", "test": "qHTS Assay for Inhibitors of GCN5L2", "conditions": "GCN5L2 HAT assay, ThioGlo1 CoA-SH fluorescence; series mostly up to 58.9 µM", "summary_of_the_method": "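Compounds, pin-transferred from DMSO stocks, meet 20nM GCN5L2 for 15 min before the reaction begins with H3(1-25) peptide (75uM) and acetyl-CoA (70uM). Thiol-reactive ThioGlo1 reports CoA release over 20 min at room temperature.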", "values": [
      {"smiles": "c1ccc(-c2noc(-c3cccc4ccccc34)n2)nc1", "Potency": "inactive"},
      {"smiles": "Cc1cccc(NC(=O)c2ccc(F)c(S(=O)(=O)NCc3ccco3)c2)c1", "Potency": "inactive"},
      {"smiles": "O=[N+]([O-])c1ccccc1CNc1ccc(F)c(Cl)c1", "Potency": "inactive"},
      {"smiles": "COc1ccc(OC)c(S(=O)(=O)Nc2ccc(O)c3ccccc23)c1", "Potency": "inconclusive: 31.6 µM [inhibitor, single point]"},
      {"smiles": "O=[N+]([O-])c1cc(Cl)cc(/C=N/NC(=S)Nc2cc(S(=O)(=O)N3CCOCC3)ccc2Cl)c1O", "Potency": "inconclusive: 39.8 µM [inhibitor, single point]"},
      {"smiles": "COc1ccc(N2CC(C(=O)Nc3nccs3)CC2=O)cc1", "note": "(configuration not stated)", "Potency": "inconclusive: 0.631 µM [inhibitor, full curve, poor fit]"},
      {"smiles": "CCc1noc(C)c1C(=O)NC1CC(C)(C)Cc2c1cnn2-c1ccccc1", "note": "(configuration not stated)", "Potency": "inconclusive: 0.794 µM [inhibitor, full curve, poor fit]"},
      {"smiles": "Cc1ccc(NC(=O)COc2cccc(C)c2C)cc1S(=O)(=O)N1CCCCCC1", "Potency": "inactive"},
      {"smiles": "O=C(c1cc(=O)c2ccccc2o1)N(Cc1ccccc1)C1CCS(=O)(=O)C1", "note": "(configuration not stated)", "Potency": "inactive"},
      {"smiles": "O=C(NC1CCS(=O)(=O)C1)Oc1ccccc1", "note": "(configuration not stated)", "Potency": "inactive"},
      {"smiles": "COC(=O)C1=C(C)N(CCCC(=O)O)C(=O)NC1c1ccc(Br)cc1", "note": "(configuration not stated)", "Potency": "inactive"},
      {"smiles": "CCOC(=O)CNC(=O)N1CCN(S(=O)(=O)c2ccc3c(ccn3C)c2)CC1", "Potency": "inactive"},
      {"smiles": "N#Cc1c(SCC(=O)Nc2nccs2)sc2c(O)cc(=O)[nH]c12", "Potency": "inconclusive: 5.62 µM [inhibitor, partial curve]"},
      {"smiles": "CC[n+]1c(/C=C/N(C)c2ccccc2)n(-c2ccccc2)c2ccc(-c3nc4ccccc4s3)cc21", "Potency": "inconclusive: 17.8 µM [inhibitor, partial curve]"},
      {"smiles": "Cc1ccccc1N1CCN(CC(=O)Nc2nc(C)c(C(=O)N(C)C)s2)CC1", "Potency": "inconclusive: 0.631 µM [inhibitor, single point]"},
      {"smiles": "CCS(=O)(=O)c1cc([N+](=O)[O-])c(Sc2ccccc2N)s1", "Potency": "inconclusive: 25.1 µM [inhibitor, single point]"},
      {"smiles": "COc1ccc(/C=C2\\SC(=S)N(CCC(=O)Nc3ccc(C(=O)O)cc3)C2=O)cc1", "Potency": "inconclusive: 39.8 µM [inhibitor, single point]"},
      {"smiles": "CCCCN(C)C(=O)c1ccc2c(=O)n3nc(Nc4cc(C)ccc4C)sc3nc2c1", "Potency": "inactive"},
      {"smiles": "CC(C)(C)c1ccc(CN2N=Nc3ccccc3S2(=O)=O)cc1", "Potency": "inconclusive: 0.891 µM [inhibitor, single point]"},
      {"smiles": "Cc1c(O)ccc2c(CN3CCN(CCO)CC3)cc(=O)oc12", "Potency": "inconclusive: 31.6 µM [inhibitor, single point]"},
      {"smiles": "CCCCn1c(C)cc2c(c1=O)[C@H]1O[C@](CCCC)(Cc3c1ccc1ccccc31)O2", "Potency": "inconclusive: 4.47 µM [inhibitor, single point]"},
      {"smiles": "COc1ccc2oc(-c3ccco3)cc(=O)c2c1", "Potency": "inconclusive: 39.8 µM [inhibitor, partial curve]"},
      {"smiles": "COc1ccccc1N(C)S(=O)(=O)c1ccc(Cl)c(C(=O)NCCCN2CCOCC2)c1", "Potency": "inconclusive: 7.94 µM [inhibitor, full curve, poor fit]"},
      {"smiles": "Cc1cc(C)cc(NC(=O)COc2cccc3c(=O)n(C)ccc23)c1", "Potency": "inconclusive: 1.41 µM [inhibitor, full curve, poor fit]"},
      {"smiles": "CC(C)CSc1n[nH]c(=S)s1", "Potency": "inconclusive: 31.6 µM [inhibitor, single point]"},
      {"smiles": "NS(=O)(=O)c1ccc(N/N=C/c2ccc(O)cc2O)c([N+](=O)[O-])c1", "Potency": "inactive"},
      {"smiles": "Cc1ccc(C(=O)N/C(=C\\c2cccs2)C(=O)NCCCn2ccnc2)cc1C", "Potency": "inconclusive: 3.16 µM [inhibitor, partial curve]"},
      {"smiles": "COc1ccc(NC(=O)c2oc3ccccc3c2NC(=O)c2ccco2)c(OC)c1", "Potency": "inconclusive: 39.8 µM [inhibitor, single point]"},
      {"smiles": "O=[N+]([O-])C(=C1Nc2ccccc2N1)/C(Cl)=C(/Cl)Br", "Potency": "inconclusive: 31.6 µM [inhibitor, single point]"},
      {"smiles": "Cc1cccc(N(CC(=O)N2CCN(C)CC2)S(=O)(=O)c2ccccc2)c1", "Potency": "inconclusive: 39.8 µM [inhibitor, single point]"},
      {"smiles": "O=C(Cn1cnc2sc(-c3ccccc3)cc2c1=O)NCc1ccco1", "Potency": "inconclusive: 20 µM [inhibitor, partial curve]"},
      {"smiles": "Cc1nc2c(C(=O)NCCc3ccccc3Cl)c[nH]n2c(=O)c1Cl", "Potency": "inconclusive: 35.5 µM [inhibitor, single point]"},
      {"smiles": "N#Cc1ccccc1CSc1nnc(-c2ccc(Br)cc2)o1", "Potency": "inactive"},
      {"smiles": "CCn1cc(C(=O)NCc2ccccc2F)c(=O)c2ccc(C)nc21", "Potency": "inconclusive: 8.91 µM [inhibitor, single point]"},
      {"smiles": "Cn1c(SCC(=O)NCC2CCCO2)nnc1-c1c[nH]c2ccccc12", "note": "(configuration not stated)", "Potency": "inconclusive: 7.08 µM [inhibitor, full curve, poor fit]"},
      {"smiles": "COc1cc(/C=C/C(=O)N2C(=O)c3cccc(N)c3C2=O)cc(OC)c1OC", "Potency": "inconclusive: 12.6 µM [inhibitor, partial curve]"},
      {"smiles": "S=C(Nc1ccc2nsnc2c1)NC1CCCCC1", "Potency": "inactive"},
      {"smiles": "O=C(CCN1C(=O)/C(=C/C=C/c2ccccc2)SC1=S)Nc1cccnc1", "Potency": "inconclusive: 35.5 µM [inhibitor, single point]"},
      {"smiles": "CCOc1cccc(NCc2cc3c(C(C)(C)C)nn(-c4ccccc4)c3[nH]c2=O)c1", "Potency": "inconclusive: 31.6 µM [inhibitor, single point]"},
      {"smiles": "CC(C)c1cc(-c2cc(-c3ccc(Cl)cc3)on2)nc(NCC2CC2)n1", "Potency": "inactive"},
      {"smiles": "CCOc1ccccc1N1CSC2=C(C#N)C(c3c(OC)ccc4ccccc34)CC(=O)N2C1", "note": "(configuration not stated)", "Potency": "active: 28.2 µM"},
      {"smiles": "CC(C)CN1C(=O)c2ccc(NC(=O)c3cccs3)cc2C1=O", "Potency": "inconclusive: 2.82 µM [inhibitor, partial curve]"},
      {"smiles": "Cc1ccc(/C=C/C(=O)NCCc2cccc(Cl)c2)o1", "Potency": "inconclusive: 39.8 µM [inhibitor, single point]"},
      {"smiles": "COCCN(CC(=O)NC1CCCCC1)C(=O)c1csnn1", "Potency": "inconclusive: 31.6 µM [inhibitor, single point]"},
      {"smiles": "Cc1c(Cl)cccc1NC(=O)CN1CCC(NC(=O)C2CCCCC2)CC1", "Potency": "inconclusive: 31.6 µM [inhibitor, single point]"},
      {"smiles": "Cc1nn(Cc2ccc(C(=O)N3CCCC3)o2)c(C)c1[N+](=O)[O-]", "Potency": "inconclusive: 22.4 µM [inhibitor, single point]"},
      {"smiles": "Cc1csc(NC(=O)CSc2nc3sc(C)c(C)c3c(=O)[nH]2)n1", "Potency": "inactive"},
      {"smiles": "Cc1ccc(NC2=C/C(=N\\S(=O)(=O)c3cccs3)c3ccccc3C2=O)c(C)c1", "Potency": "inactive"},
      {"smiles": "O=C(O)c1ccc(-c2c3nc(c(-c4ccc(C(=O)O)cc4)c4ccc([n-]4)c(-c4ccc(C(=O)O)cc4)c4nc(c(-c5ccc(C(=O)O)cc5)c5ccc2[n-]5)C=C4)C=C3)cc1.[Mn+3]", "Potency": "inconclusive: 39.8 µM [inhibitor, single point]"},
      {"smiles": "CN(C)c1ccc(N/C=C/C(=O)C(F)(F)F)cc1", "Potency": "inconclusive: 0.794 µM [inhibitor, single point]"},
      {"smiles": "COc1cc(C)ccc1OCCOc1cc(C)ccc1Cl", "Potency": "inconclusive: 39.8 µM [inhibitor, single point]"},
      {"smiles": "COc1ccc(C2/C=C\\[C@H](O[Si](C)(C)C(C)(C)C)[C@H](C(C)C)CC(=O)N2Cc2ccccc2)cc1", "note": "(some centres not stated)", "Potency": "inactive"},
      {"smiles": "COc1ccc(C)cc1NC(=O)C(Sc1nnc(-c2ccncc2)n1-c1ccc(Cl)cc1)c1ccccc1", "note": "(configuration not stated)", "Potency": "inconclusive: 22.4 µM [inhibitor, single point]"},
      {"smiles": "O=C(NCC(=O)N1CCN(S(=O)(=O)c2ccccc2C(F)(F)F)CC1)c1sc2ccccc2c1Cl", "Potency": "inconclusive: 28.2 µM [inhibitor, single point]"},
      {"smiles": "c1ccc2c(c1)oc1c(Nc3ccc(CN4CCOCC4)cc3)ncnc12", "Potency": "inactive"},
      {"smiles": "CCn1c(C)nnc1SCC(=O)Nc1ccc(N2CCOCC2)cc1", "Potency": "inconclusive: 2.24 µM [inhibitor, partial curve]"},
      {"smiles": "CCOc1cccc(C(=O)c2ccc(O)c(O)c2O)c1", "Potency": "inactive"},
      {"smiles": "CCc1ccc(-n2c(SCc3c(C)noc3C)nnc2-c2ccncc2)cc1", "Potency": "inactive"},
      {"smiles": "CC(C)n1c(=O)c2c(O)cc(=O)oc2c2ccccc21", "Potency": "inconclusive: 6.31 µM [inhibitor, single point]"},
      {"smiles": "Cc1ccc(OCC(=O)c2ccc(Cl)s2)c([N+](=O)[O-])n1", "Potency": "inconclusive: 35.5 µM [inhibitor, single point]"},
      {"smiles": "COc1ccccc1NC(=O)Cn1cc(S(=O)(=O)Cc2ccccc2)c2ccccc21", "Potency": "inconclusive: 39.8 µM [inhibitor, single point]"},
      {"smiles": "c1ccc(Cn2c3ccccc3c3nnc(SCCN4CCCCC4)nc32)cc1", "Potency": "inactive"},
      {"smiles": "Cc1ccccc1N1C(=O)C(Cc2ccc(F)cc2)S/C1=C(\\C#N)C(N)=O", "note": "(configuration not stated)", "Potency": "inconclusive: 0.398 µM [inhibitor, full curve, poor fit]"},
      {"smiles": "COCCNC(=O)c1csc(Nc2cccc3ccccc23)n1", "Potency": "inconclusive: 8.91 µM [inhibitor, single point]"},
      {"smiles": "O=C(c1cc2nc(-c3ccccc3)cc(-c3ccccc3)n2n1)N1CCN(C(=O)c2ccco2)CC1", "Potency": "inconclusive: 25.1 µM [inhibitor, single point]"},
      {"smiles": "CC1=C(C(=O)OCc2ccccc2)C(c2ccc(C(C)(C)C)cc2)NC(=O)N1CCCCCC(=O)O", "note": "(configuration not stated)", "Potency": "inconclusive: 31.6 µM [inhibitor, single point]"},
      {"smiles": "O=c1c2ccccc2c(C=Nc2ccc(S(=O)(=O)N3CCCCC3)cc2)c(O)n1-c1ccc(Cl)cn1", "Potency": "inconclusive: 39.8 µM [inhibitor, single point]"}
    ]}
  ]
}
